According to PMC10906865:
Results are given in words; binding and its absence hold for the method and conditions named.

Biological target: T1, Lysozyme, P61626
T1 chain: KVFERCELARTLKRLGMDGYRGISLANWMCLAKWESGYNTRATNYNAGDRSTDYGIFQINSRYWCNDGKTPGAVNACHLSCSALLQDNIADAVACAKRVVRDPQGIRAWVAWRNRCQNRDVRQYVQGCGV
Test: differential scanning calorimetry; peak height of the DSC thermogram of the pure protein compared with a DNA hairpin standard curve; ratio of the calorimetric concentration to the UV-Vis or dry-weight concentration read as stoichiometry; 150 mM NaCl, 10 mM potassium phosphate, 15 mM sodium citrate, pH 7.4; heating about 1°C/min; both purified
Conditions: remark: other sources report otherwise

binding: no binding
B1: Lysozyme, P61626 19-148 (enzyme)
chain: KVFERCELARTLKRLGMDGYRGISLANWMCLAKWESGYNTRATNYNAGDRSTDYGIFQINSRYWCNDGKTPGAVNACHLSCSALLQDNIADAVACAKRVVRDPQGIRAWVAWRNRCQNRDVRQYVQGCGV
